Laboratory results taken from PMC12633796.
No constants are given. Whether binding was seen depends on the method and setting. Binding seen in cells or lysates may run through a third protein. Some results given as binding are weak or reduced against the parent protein; the word gives no strength. Where a sequence is shown, tags or fusion partners need not be part of it.

Protein sequences, listed by entry. Tags and fused reporters are not part of them.
UniProt P51532: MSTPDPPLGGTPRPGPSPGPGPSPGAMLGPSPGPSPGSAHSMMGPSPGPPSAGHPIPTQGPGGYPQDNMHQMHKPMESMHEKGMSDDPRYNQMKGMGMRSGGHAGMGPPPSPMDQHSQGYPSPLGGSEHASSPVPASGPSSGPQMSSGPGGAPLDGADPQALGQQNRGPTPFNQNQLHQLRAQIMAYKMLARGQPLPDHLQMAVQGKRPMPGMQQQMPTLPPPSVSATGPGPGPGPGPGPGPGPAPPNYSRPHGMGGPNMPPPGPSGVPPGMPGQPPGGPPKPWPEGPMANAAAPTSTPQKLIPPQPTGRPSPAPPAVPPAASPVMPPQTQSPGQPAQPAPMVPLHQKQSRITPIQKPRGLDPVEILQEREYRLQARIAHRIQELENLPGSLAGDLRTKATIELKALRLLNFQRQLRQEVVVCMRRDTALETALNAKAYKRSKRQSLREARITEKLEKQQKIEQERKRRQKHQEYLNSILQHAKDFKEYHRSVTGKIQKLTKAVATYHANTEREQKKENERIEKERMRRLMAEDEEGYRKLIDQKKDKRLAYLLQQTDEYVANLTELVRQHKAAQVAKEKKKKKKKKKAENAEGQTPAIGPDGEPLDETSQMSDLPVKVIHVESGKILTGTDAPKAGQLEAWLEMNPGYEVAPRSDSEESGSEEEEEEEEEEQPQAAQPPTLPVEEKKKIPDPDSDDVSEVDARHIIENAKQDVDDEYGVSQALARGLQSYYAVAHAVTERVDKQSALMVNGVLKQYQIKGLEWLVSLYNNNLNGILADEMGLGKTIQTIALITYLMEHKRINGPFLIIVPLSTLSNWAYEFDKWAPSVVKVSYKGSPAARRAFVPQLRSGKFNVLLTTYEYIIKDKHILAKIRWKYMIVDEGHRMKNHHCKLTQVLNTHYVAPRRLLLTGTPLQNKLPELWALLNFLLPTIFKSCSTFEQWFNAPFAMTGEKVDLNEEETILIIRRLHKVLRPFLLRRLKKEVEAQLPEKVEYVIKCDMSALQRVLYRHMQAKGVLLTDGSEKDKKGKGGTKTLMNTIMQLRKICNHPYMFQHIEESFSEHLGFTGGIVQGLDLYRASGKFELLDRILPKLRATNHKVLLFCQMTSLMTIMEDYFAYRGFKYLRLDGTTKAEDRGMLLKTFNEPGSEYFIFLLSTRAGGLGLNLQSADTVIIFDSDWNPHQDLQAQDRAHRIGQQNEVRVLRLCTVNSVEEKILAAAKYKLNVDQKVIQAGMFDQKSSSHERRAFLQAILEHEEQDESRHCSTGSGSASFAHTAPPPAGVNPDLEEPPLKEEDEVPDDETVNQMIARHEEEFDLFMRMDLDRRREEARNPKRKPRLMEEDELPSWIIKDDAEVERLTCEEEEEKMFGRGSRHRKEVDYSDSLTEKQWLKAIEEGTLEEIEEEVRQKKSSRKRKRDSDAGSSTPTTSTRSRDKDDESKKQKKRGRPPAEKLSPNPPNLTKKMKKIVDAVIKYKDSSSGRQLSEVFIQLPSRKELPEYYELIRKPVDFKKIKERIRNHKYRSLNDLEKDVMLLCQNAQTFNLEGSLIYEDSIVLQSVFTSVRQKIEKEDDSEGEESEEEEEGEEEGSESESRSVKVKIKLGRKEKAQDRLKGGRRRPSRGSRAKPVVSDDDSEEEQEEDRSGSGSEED

Molecular target: T1, GCM1-Flag (human) (UniProt Q9NP62)
T1 sequence: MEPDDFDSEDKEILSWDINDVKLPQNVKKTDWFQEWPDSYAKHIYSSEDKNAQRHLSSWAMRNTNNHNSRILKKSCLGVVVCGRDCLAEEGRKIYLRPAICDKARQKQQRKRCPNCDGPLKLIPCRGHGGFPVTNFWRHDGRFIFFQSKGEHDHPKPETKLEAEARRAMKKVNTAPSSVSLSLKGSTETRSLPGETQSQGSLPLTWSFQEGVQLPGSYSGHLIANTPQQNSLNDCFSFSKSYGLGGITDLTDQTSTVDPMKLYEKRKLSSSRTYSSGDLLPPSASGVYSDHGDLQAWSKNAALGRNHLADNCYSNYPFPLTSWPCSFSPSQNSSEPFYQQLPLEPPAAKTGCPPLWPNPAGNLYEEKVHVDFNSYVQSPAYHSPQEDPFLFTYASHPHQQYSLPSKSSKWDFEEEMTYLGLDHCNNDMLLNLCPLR
Assay: co-IP; anti-Flag M2 beads (80 ul) with 1 mg whole-cell lysate of ST cells expressing dox-inducible GCM1-Flag or empty vector; Hunt buffer (20 mM Tris/HCl pH 8.0, 100 mM NaCl, 1 mM EDTA, 0.5% NP-40), overnight at 4°C; TBS washes; western blot

With “BRG1 (SMARCA4) (from UniProt P51532 1-1647) (enzyme)” the binding was “binds”.
